{"source": "patent US4242262A", "about": "“9-Nitromethyldeoxyclavulanic acid derivatives preparation and compositions” (Beecham Group Limited, priority 1977, dated 1980)", "system": "E. coli JT 39", "assay": "MIC of ampicillin alone or with compound of the Example, E. coli JT 39", "format": "cell-based", "conditions": "Ampicillin alone"}
{"smiles": "CC1(C)S[C@@H]2[C@H](NC(=O)[C@H](N)c3ccccc3)C(=O)N2[C@H]1C(=O)O", "note": "[Ampicillin]", "values": [{"measurement": "MIC", "setting": "table 1, E. coli JT 39", "result": "> 500", "unit": "µg/mL"}, {"measurement": "MIC", "setting": "table 2 (no quantity or unit in head), E. Coli JT 39", "result": "> 500"}]}
